Data: US20160137740A1
No constants are given. Whether binding was seen depends on the method and setting. A result given as binding can be weak or reduced; the word gives no strength.

How the values were obtained:
[1] = target: KO_CRD1 (human OX40 aa 29 to 65 replaced with the mouse counterparts) (human; mouse); experiment: flow cytometry on transfected 293F cells
[2] = target: KO_CRD2 (human OX40 aa 66 to 107 replaced with the mouse counterparts) (human; mouse); experiment: flow cytometry on transfected 293F cells

B1: 9B12 (antibody, mouse IgG1, V domains shown)
VH: EVQLQESGPSLVKPSQTLSLTCSVTGDSFTSGYWNWIRKFPGNRLEYMGYISYNGITYHNPSLKSRISITRDTSKNHYYLQLNSVTTEDTATYFCARYRYDYDGGHAMDYWGQGTLVTVSS
VL: DIQMTQTTSSLSASLGDRVTISCRASQDISNYLNWYQQKPDGTVKLLIYYTSKLHSGVPSRFSGSGSRTDYSLTITDLDQEDIATYFCQQGSALPWTFGQGTKVEIKR
- binding [1]: binds
- binding [2]: binds
